No constants are given. Whether binding was seen depends on the method and setting. A result given as binding can be weak or reduced; the word gives no strength.
target: HLA-A*02:01 (human); assay: UV peptide-exchange ELISA, exchange yield grade

binding	Binder
binds	RVLPGQAVTGV [… (SEQ ID NO: 107)]
binds	LLLPLELSLA [… (SEQ ID NO: 88)]
binds	FVQEKIPEL [… (SEQ ID NO: 98)]
binds	ALQSFEFRV [… (SEQ ID NO: 100)]
binds	SLAETIFIV [… (SEQ ID NO: 89)]
binds	AMLASQTEA [… (SEQ ID NO: 105)]
binds	RLFEEVLGV [… (SEQ ID NO: 92)]
binds	KLIDEDEPLFL [… (SEQ ID NO: 95)]
binds	YLDEVAFML [… (SEQ ID NO: 94)]
binds	SLLEVNEASSV [… (SEQ ID NO: 101)]
binds	QLIEKNWLL [… (SEQ ID NO: 10)]
binds	ILGSFELQL [… (SEQ ID NO: 109)]
binds	FIANLPPELKA [… (SEQ ID NO: 108)]
binds	GLYPVTLVGV [… (SEQ ID NO: 102)]
binds	KLLSLLEEA [… (SEQ ID NO: 87)]
binds	TLFGIQLTEA [… (SEQ ID NO: 99)]
binds	LLDPKTIFL [… (SEQ ID NO: 11)]
binds	LLPSIFLMV [… (SEQ ID NO: 91)]
binds	SLFSNIESV [… (SEQ ID NO: 86)]
binds	RLYGYFHDA [… (SEQ ID NO: 93)]
binds	AILNVDEKNQV [… (SEQ ID NO: 90)]
binds	ALDTTRHEL [… (SEQ ID NO: 96)]
binds	YLADTVQKL [… (SEQ ID NO: 103)]
binds	KLFEKSTGL [… (SEQ ID NO: 97)]
binds	KLLDKPEQFL [… (SEQ ID NO: 85)]
binds	VLLGSVVIFA [… (SEQ ID NO: 106)]

Source: US20230203127A1
